Consider 39 molecules from PubChem BioAssay AID2685 (National Center for Advancing Translational Sciences (NCATS), 2010).

The nature of this assay: qHTS Assay for Lipid Storage Modulators in Drosophila S3 Cells.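 For cell number change: cells counted by Cell Tracker Red CMTPX staining in the red channel.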 The settings on record: BODIPY lipid droplet fluorescence, 18-24 h; for cell number change: measured here: cell count max response, cells fed with added oleic acid. The essentials:
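Drosophila S3 cells got compounds at several concentrations plus oleic acid (400 uM solution). Laser-scanning cytometry with 488 nm excitation read lipid droplets at 500-530 nm and cells at 575-640 nm. Percent activity was relative to 20 uM Triacsin C.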
(In general: Quantitative high-throughput screening tests each substance at several concentrations.)

The mark [1] stands for this setting: measured here: lipid fluorescence (Fed channel) AC50, cells fed with added oleic acid.
Setting [2] is: measured here: cell number channel AC50, cells fed with added oleic acid.

Some of the results follow. Shown are side measurements of this screen, not its main read-out; they come without a call. Compounds called inactive in the main read-out are mostly missing here. The note in brackets gives the kind of curve behind each potency; many fits are weak. Where a SMILES comes first, the peptide text is derived from it. [ ]: non-standard residue; d: D form. The star is where a group is joined. ξ: configuration not given here. Cbz = O=C(OCc1ccccc1)*; ξS = NC(CO)C(=O)O

The AC50 is the concentration at which the activity in the assay is half-maximal. A higher AC50 goes with activity only at high concentration.

As to `COc1ccc(N(C(=O)c2snc(C(N)=O)c2N)C(C(=O)NC2CCCCC2)c2ccc(F)cc2)c(OC)c1` (stereo not drawn), under setting [1], the half-maximal activity concentration (AC50) was 18.4 µM [falling, partial curve].

Turning to `COC(=O)c1[nH]c2ccccc2c1NS(=O)(=O)c1ccc(OC)cc1OC`, the cell number change amounted to 96.5%. Moreover, under setting [2], the AC50 is 29.1 µM [rising, single point]. Besides, the AC50 under setting [1] is 0.13 µM [rising, full curve, poor fit].

For `CCOc1cc(N2CCOCC2)c(OCC)cc1NC(=O)c1nn(CC)c(=O)c2ccccc12`, the cell number change came out at 20.5%.

Take `COc1ccc(N2CCN(C(=O)CN3C(=O)C4CC=CCC4C3=O)CC2)cc1` (stereo not drawn): the AC50 under setting [2] is 0.731 µM [rising, single point].

With `O=C(N1CCCCCC1)N1CCN(S(=O)(=O)c2ccccc2)CC1`, the cell number change is -35.5%. Besides, the AC50 under setting [2] is 7.31 µM [falling, partial curve].

`CN1CCC(=O)N([C@H](CN=[N+]=[N-])c2ccccc2)CC1`: the cell number change was -3.89%.

Regarding `CN(C)S(=O)(=O)c1ccc2c(c1)c(=O)c(C(=O)N1CCN(c3ccccn3)CC1)cn2C`, the cell number change came to 20%.

Regarding `COc1ccc(C2CC(C(F)(F)F)n3nc(C(=O)O)c(Br)c3N2)cc1` (stereo not drawn), the cell number change stood at 3.58%.

Consider `Oc1ccc(Nc2nc(N3CCCC3)c3ccccc3n2)cc1`, for which the cell number change was -32.9%. In addition, under setting [2], the AC50 is 23.1 µM [falling, single point]. The AC50 under setting [1] is 4.11 µM [rising, single point].

Turning to `Cc1cc(C(=O)COC(=O)c2ccc(O)cc2)c(C)n1CCc1ccc(F)cc1`, the cell number change turned out to be 22.4%.

`CCOC(=O)c1c(NC(C)=O)sc2c(O)cccc12`: the cell number change stood at 58.1%. Moreover, the AC50 under setting [2] is 23.1 µM [rising, partial curve, poor fit]. Under setting [1], the AC50 is 2.59 µM [falling, full curve, poor fit].

In the case of `CC(=O)C1C(c2ccccc2OC(F)F)NC(=O)NC1(O)C(F)(F)F` (stereo not drawn), the cell number change was -10.3%. The half-maximal activity concentration (AC50) under setting [2] is 6.51 µM [rising, partial curve, poor fit]. Under setting [1], the AC50 is 5.17 µM [rising, single point].

Regarding `Cc1nn(C)c(C(=O)Sc2ccccc2)c1[N+](=O)[O-]`, the cell number change came out at 16.1%. The AC50 under setting [1] was 0.206 µM [falling, full curve, poor fit].

For the molecule `CS(=O)(=O)N(CC(=O)NCc1ccc2c(c1)OCO2)Cc1ccc(Cl)cc1`, the AC50 under setting [2] is 1.46 µM [rising, partial curve, poor fit].

Turning to `Cc1ccc2nc(Cl)c(C3CC(c4cccs4)=NN3S(C)(=O)=O)cc2c1` (stereo not drawn), the cell number change worked out at 14.8%. Under setting [1], the half-maximal activity concentration (AC50) is 0.103 µM [falling, full curve, poor fit].

As for `CN1C(=O)N(C)C2C1N(C)S(=O)(=O)N2C` (stereo not drawn), the cell number change is -2.6%. Besides, the half-maximal activity concentration (AC50) under setting [1] is 7.31 µM [falling, partial curve].

Turning to `Cc1ccccc1NC(=O)c1ccc(N/N=C/c2ccccc2O)c([N+](=O)[O-])c1`, the cell number change is 9.27%. Further, the AC50 under setting [1] is 6.51 µM [falling, single point].

For `c1ccc(Cn2ncc3c(NCc4ccco4)ncnc32)cc1`, the cell number change is -30.8%. For the same molecule, the concentration at half-maximal activity (AC50) under setting [2] was 32.6 µM [falling, partial curve, poor fit].

Take `COc1ccc(NC(=O)COC(=O)CCc2ccccc2)c(OC)c1`: the cell number change is -6.31%. Also, the AC50 under setting [1] is 0.58 µM [falling, single point].

Turning to `O=C(c1ccco1)N1CCN(Cc2nc3cc(Cl)ccc3c(=O)[nH]2)CC1`, the cell number change is 51.1%.

Consider `Cc1ccc(C(O)c2cccnc2)o1` (stereo not drawn), for which the cell number change turned out to be 8.38%. For the same molecule, the AC50 under setting [2] was 2.59 µM [rising, single point]. Besides, the AC50 under setting [1] was 0.326 µM [falling, partial curve].

On to `CCCC(=O)NC(c1ccc2c(c1)OCO2)c1cc(Cl)c2cccnc2c1O` (stereo not drawn), for which the cell number change came out at 2.41%. Also, the concentration at half-maximal activity (AC50) under setting [1] is 4.61 µM [falling, single point].

With `CCOc1ccc(OCC(=O)OCC(=O)NCC2CCCO2)cc1` (stereo not drawn), the cell number change was -12.3%. Moreover, the AC50 under setting [1] was 29.1 µM [rising, single point].

Regarding `CCOC(=O)C1CCN(CC(=O)Nc2cc(C)nn2-c2nc3ccccc3s2)CC1`, the cell number change was determined as 8.37%. Besides, under setting [1], the AC50 was 0.116 µM [falling, full curve, poor fit].

As for `CCOC(=O)CNC(=O)C(CO)NC(=O)OCc1ccccc1` (stereo not drawn) (Cbz-[ξS]-Gly-OEt), the cell number change was -41.7%. In addition, the concentration at half-maximal activity (AC50) under setting [2] was 1.84 µM [falling, full curve]. Also, the half-maximal activity concentration (AC50) under setting [1] was 29.1 µM [falling, single point].

Consider `Cc1cc(C)c(S(=O)(=O)N2CCN(C(=O)CCn3nc(C)c(C)c3C)CC2)c(C)c1`, for which the cell number change is -17.9%.

As to `Cc1nc(NC(=O)CSc2nnc(C3CC3)n2C)sc1C(=O)N(C)C`, the cell number change was -0.276%. Further, the concentration at half-maximal activity (AC50) under setting [1] is 23.1 µM [falling, single point].

As for `O=S(=O)(c1cccc2nonc12)N1CCCCC1`, the cell number change was -1.47%. Besides, the AC50 under setting [1] was 29.1 µM [rising, single point].

On to `CCn1c(=O)n(CC)c2cc(N3CCCC3)c(NC(=O)c3cc(Br)ccc3OC)cc21`, for which the cell number change is -15.1%. For the same molecule, the AC50 under setting [1] is 7.31 µM [falling, partial curve].

As to `COc1cc(NC(=O)CSc2nccc(C)n2)c(C)cc1[N+](=O)[O-]`, the cell number change was found to be 30.5%. Moreover, the AC50 under setting [2] was 16.4 µM [rising, single point]. The AC50 under setting [1] is 29.1 µM [rising, partial curve].

For the molecule `CCc1cc(N2CCOCC2)cc2c1[nH]c1ccccc12`, the cell number change is 5.61%. Under setting [1], the AC50 was 29.1 µM [rising, single point].

Regarding `COc1ccc(CCN(C)C(=O)/C=C/c2c(Cl)nc3ccccn23)cc1OC`, the cell number change is -7.3%. For the same molecule, the half-maximal activity concentration (AC50) under setting [2] is 0.731 µM [rising, single point].

As to `Cc1ccc2c(c1)-c1c(ssc1=S)C(C)(C)N2C(=O)CSc1nncn1C`, the cell number change was 2.59%.

Consider `Cc1ccc(-n2nc(-c3cccnc3)cc2C(=O)N2CCOCC2)c(C)c1`, for which the cell number change came to 38.8%. The AC50 under setting [2] is 8.2 µM [rising, partial curve, poor fit].

With `CN(CCOc1ccccc1)C(=O)c1ccc(OC2CCN(C(=O)C3CC3)CC2)cc1`, the cell number change amounted to 6.99%.

`COc1cccc(CN2CC(C(=O)N(C)Cc3nc4ccc(F)cc4[nH]3)CCC2=O)c1` (stereo not drawn): the cell number change was -1.33%. For the same molecule, the AC50 under setting [1] is 0.206 µM [rising, partial curve, poor fit].

Consider `CCOc1ccc(-c2c(C(=O)N/N=C(\C)c3ccco3)nnn2-c2nonc2N)cc1`, for which the cell number change was 5.5%. Moreover, the concentration at half-maximal activity (AC50) under setting [1] was 6.51 µM [rising, partial curve, poor fit].

Regarding `O=C(CN1C(=O)NC2(CCCCCC2)C1=O)N1CCCCC1`, the cell number change was -44.8%. Besides, the AC50 under setting [2] was 0.517 µM [falling, full curve].

As for `O=C(NNC(=O)C1CC(c2cccnc2)=NO1)Nc1ccccc1F` (stereo not drawn), the cell number change was determined as 8.5%. Under setting [1], the concentration at half-maximal activity (AC50) is 0.291 µM [rising, partial curve, poor fit].
